Measured values reported in PubChem BioAssay AID1851 (National Center for Advancing Translational Sciences (NCATS), 2009).
Hit rate of the full screen: of about 16,000 compounds, about 5,100 (32%) were called active. Calls come from the whole dose curve; as a rule, active = well fitted curve in the direction sought with a large enough effect; inconclusive = small, poorly fitted or top-dose-only effect, or effect the other way; inactive = no such curve, though single readings can be large or run the other way. Inconclusive results, whose numbers are uncertain, are shown. Potencies beside an inconclusive call are fits to weak or partial responses and may not hold up.

By UniProt entry, the sequences of proteins in these tests, tags left out.
UniProt P08684, whole entry, looked up: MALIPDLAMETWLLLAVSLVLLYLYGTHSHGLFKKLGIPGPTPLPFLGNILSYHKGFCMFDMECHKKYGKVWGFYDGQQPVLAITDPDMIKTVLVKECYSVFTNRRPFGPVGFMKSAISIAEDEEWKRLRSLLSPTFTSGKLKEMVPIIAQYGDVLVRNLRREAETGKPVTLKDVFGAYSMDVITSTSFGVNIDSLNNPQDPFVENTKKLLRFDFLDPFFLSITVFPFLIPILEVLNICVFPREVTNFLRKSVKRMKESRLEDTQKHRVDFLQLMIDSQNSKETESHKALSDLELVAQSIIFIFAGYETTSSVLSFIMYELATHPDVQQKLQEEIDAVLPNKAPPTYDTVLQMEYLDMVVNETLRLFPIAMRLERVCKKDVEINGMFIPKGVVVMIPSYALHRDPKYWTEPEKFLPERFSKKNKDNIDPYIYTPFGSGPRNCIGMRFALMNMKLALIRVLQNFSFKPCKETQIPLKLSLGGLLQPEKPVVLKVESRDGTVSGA

Biological target: Cytochrome P450 3A4 (Homo sapiens) (UniProt P08684)
Test: Cytochrome panel assay with activity outcomes
Settings: recombinant CYP, pro-luciferin dealkylation, luminescence; p450-cyp3a4

| SMILES | AC50 |
| --- | --- |
| O=C(O)CN1CCN(CC(=O)O)CC(=O)[O][Hg][O]C(=O)C1 | inconclusive: 6.31 µM [falling, single point] |
